Measured values reported in publication PMC9932092.
Results are given in words; binding and its absence hold for the method and conditions named. Some results given as binding are weak or reduced against the parent protein; the word gives no strength.

The chains behind the UniProt entries cited, without tags or fusion partners.
UniProt P02948: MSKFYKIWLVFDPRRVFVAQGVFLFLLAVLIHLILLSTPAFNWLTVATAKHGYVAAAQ
UniProt P02950: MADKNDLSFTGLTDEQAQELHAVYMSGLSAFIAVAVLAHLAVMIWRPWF
UniProt P19057: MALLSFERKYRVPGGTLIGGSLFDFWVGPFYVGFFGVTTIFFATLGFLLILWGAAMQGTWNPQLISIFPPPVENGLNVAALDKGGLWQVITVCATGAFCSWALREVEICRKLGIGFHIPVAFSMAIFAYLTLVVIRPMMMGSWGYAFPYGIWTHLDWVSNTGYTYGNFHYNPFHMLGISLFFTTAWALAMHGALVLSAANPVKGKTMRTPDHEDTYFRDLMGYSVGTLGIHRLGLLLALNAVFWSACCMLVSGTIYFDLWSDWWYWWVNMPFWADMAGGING

Legend:
Assay in all cases: cryo-EM structure; native LH1–RC purified in DDM, ~3.8 mg/ml, 2.62 Å resolution; both purified
[1] = biological target: LH1 α-polypeptide (Rhodobacter capsulatus (endogenous in strain NBRC16435)) (UniProt P02948)
[2] = biological target: LH1 β-polypeptide (Rhodobacter capsulatus (endogenous in strain NBRC16435)) (UniProt P02950)
[3] = biological target: RC-L subunit (Rhodobacter capsulatus (endogenous in strain NBRC16435)) (UniProt P19057)

binding [1]: binds
binding [2]: binds
binding [3]: binds
B1: PufX (protein, UniProt P26240 1-78)
chain: MSMFDKPFDYENGSKFEMGIWIGRQMAYGAFLGSIPFLLGLGLVLGSYGLGLMLPERAHQAPSPYTTEVVVQHATEVV
